# Experiments:
# Aedes aegypti = test: Topical toxicity bioassay on adult females; format: in vivo; conditions: LD50 with DEET alone/LD50 with DEET + PBO
# Method: Topical toxicity bioassays on adult female mosquitoes were performed based on the method of Pridgeon et al.. Briefly, insects were chilled on ice for 3 min, during which the appropriate volume (200 nL for mosquitoes, 1 µL for Musca) of chemical (dissolved in 95% ethanol) was applied onto the abdomen using a handheld Hamilton microapplicator. For each inhibitor, five doses were applied to groups of ten insects each and repeated three times. An ethanol-only treatment was included in each experiment as a negative control. Insects were transferred into a holding chamber post-treatment and supplied with free access to sugar water for the duration of the experiment. […] Three LD50 values were obtained and the mean LD50 value was calculated and used for statistical analysis.
# For all toxicity assays, control mortality was corrected for using Abbots formula [19]; where corrected percent mortality = (% alive in control–% alive in treated) /% alive in control.
# [1] = system: sodium channels in neonatal rat cortical neurons; test: Patch clamp of rat cortical neurons, sodium currents; format: cell-based
# Method: Rat cortical neurons (purchased from Lonza, Walkersville, MD, USA) were placed on poly-lysine coated glass cover slips in 35 mm dishes, and cultured in primary neuron basal medium with added 2% neural grown factor and 1% glutamine (from Lonza). The medium was half changed every 3 days, and the cells were used at 6–12 days. The neurons had dendrites and axons and the diameters of the somata were about 15–20 µm. Cells were cultured on cover slips and were immersed in 35 mm Petri dishes filled with room temperature extracellular saline. Patch pipettes were pulled from borosilicate glass capillaries with filament (BF150-86-10, Sutter Instrument, Novato CA, USA) on a P-1000 Flaming/Brown micropipette puller (Sutter Instrument). Extracellular solution was the same regardless of the target ion channel and contained: 140 mM NaCl, 5 mM KCl, 2 mM MgCl2, 2 mM CaCl2, 10 mM glucose, and 10 mM HEPES (pH = 7.4). Intracellular patch solution for potassium channel recordings consisted of: 140 mM KF, 10 mM NaCl, 2 mM MgCl2, and 10 mM HEPES (pH = 7.2). Intracellular patch solution for sodium channel recordings consisted of: 140 mM CsCH3SO3 10 mM NaCl, 2 mM MgCl2, 10 mM HEPES (pH = 7.2), where CsCH3SO3 was used to eliminate potassium currents during sodium channel analysis. The patch electrodes had resistances of 5–7 MOhms. […]
compound,measurement,setting,value
"CCN(CC)C(=O)c1cccc(C)c1 [DEET, N, N-diethyl-meta-toluamide]",SR (synergism ratio),Aedes aegypti,1.0
same,Hill slope fold greater than lidocaine and toluene,[1],7- to 10 fold
same,fold less active than lidocaine,[1],ca. 30 fold

# Source: publication PMC4125160, “Neurotoxicity and Mode of Action of N, N-Diethyl-Meta-Toluamide (DEET)” (PLoS ONE, 2014)
